Laboratory results: PubChem BioAssay AID652272 (Drosophila RNAi Screening Center, 2013)
In all, the deposit lists about 21,000 reagents; shown is an unselected part of those with a known target gene and a result. Over the whole deposit, 503 (2.4%) are marked active. 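Raw plate light values, not normalised; calls rest on replicate z-scores that were not deposited; hits include reporter decreases as well as increases.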 Names joined by + are all predicted targets of the reagent. Not stated in the record: the amount of reagent, the time to read-out.

Aim: 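Finding fly genes that regulate Hedgehog signal transduction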 (primary screen)
Cell system: Drosophila clone 8 (Cl8) cells
Reagents: long dsRNA against Drosophila genes
Measured: 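Plate reader light from a firefly reporter under a ptc promoter fragment that responds to Hedgehog, with Renilla light as transfection reference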
Reading the numbers: firefly Hh reporter signal: higher = more ptc reporter light; Renilla reference signal: higher = more Renilla control light
Hit rule: 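Hit when the z-score averaged over two replicates is under -2 or over +3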
Calls: active = hit: reporter lowered or raised; inactive = not a hit

gene | amplicon | firefly Hh reporter signal, replicate 1 | firefly Hh reporter signal, replicate 2 | Renilla reference signal, replicate 1 | Renilla reference signal, replicate 2 | call
lmd (lame duck) | DRSC15618 | 1.06e5 | 62112 | 4458 | 2893 | inactive
CG3198 | DRSC18292 | 77372 | 2.30e5 | 2957 | 8449 | inactive
Tsp42El (Tetraspanin 42El) | DRSC06186 | 98410 | 92144 | 3308 | 3084 | inactive
fliI (flightless I) | DRSC20578 | 5.14e5 | 95522 | 3424 | 3424 | inactive
CG15919 | DRSC06594 | 6.30e5 | 1.13e5 | 4968 | 4968 | inactive
CG9427 | DRSC16490 | 1.32e5 | 99552 | 5913 | 3856 | inactive
thoc7 | DRSC08512 | 65243 | 44700 | 3196 | 2512 | inactive
CtsB (Cathepsin B) | DRSC19361 | 78765 | 96102 | 1910 | 2632 | inactive
Atxn7 (Ataxin 7) | DRSC00726 | 1.28e5 | 97032 | 5589 | 4506 | inactive
bel (belle) | DRSC16555 | 1.00e5 | 1.45e5 | 1952 | 2090 | active
east (enhanced adult sensory threshold) | DRSC18770 | 2.91e5 | 91274 | 7289 | 2955 | inactive
CG8229 + CG33199 | DRSC05134 | 1.43e5 | 2.22e5 | 3413 | 9434 | inactive
RfC4 (Replication factor C subunit 4) | DRSC08691 | 1.37e5 | 77604 | 5893 | 3741 | inactive
CG17508 | DRSC07771 | 61200 | 52992 | 2048 | 3945 | inactive
PlexB (Plexin B) | DRSC17177 | 90822 | 2.14e5 | 2098 | 7703 | inactive
beat-IV (beaten path IV) | DRSC14195 | 1.28e5 | 90615 | 5061 | 3763 | inactive
beat-IV (beaten path IV) | DRSC14673 | 5.10e5 | 1.17e5 | 28035 | 3860 | inactive
Efa6 (Exchange factor for Arf 6) | DRSC13569 | 50312 | 1.72e5 | 10864 | 3506 | inactive
Efa6 (Exchange factor for Arf 6) | DRSC15312 | 3.85e5 | 49024 | 19105 | 1331 | inactive
Efa6 (Exchange factor for Arf 6) | DRSC16141 | 3.27e5 | 49200 | 19299 | 1914 | inactive
CG18747 | DRSC15384 | 79664 | 84939 | 2801 | 2752 | inactive
Sgs5 (Salivary gland secretion 5) | DRSC16862 | 88746 | 85504 | 3172 | 1883 | inactive

6 entries from above, set out differently.
gene,amplicon,"firefly Hh reporter signal, replicate 1","firefly Hh reporter signal, replicate 2","Renilla reference signal, replicate 1","Renilla reference signal, replicate 2",call
lmd (lame duck),DRSC15618,1.06e5,62112,4458,2893,inactive
CG3198,DRSC18292,77372,2.30e5,2957,8449,inactive
Tsp42El (Tetraspanin 42El),DRSC06186,98410,92144,3308,3084,inactive
fliI (flightless I),DRSC20578,5.14e5,95522,3424,3424,inactive
CG15919,DRSC06594,6.30e5,1.13e5,4968,4968,inactive
CG9427,DRSC16490,1.32e5,99552,5913,3856,inactive

Continued:
gene | amplicon | firefly Hh reporter signal, replicate 1 | firefly Hh reporter signal, replicate 2 | Renilla reference signal, replicate 1 | Renilla reference signal, replicate 2 | call
Dpp10 (Dipeptidyl peptidase 10) | DRSC00942 | 6.03e5 | 1.53e5 | 28441 | 6090 | inactive
Dpp10 (Dipeptidyl peptidase 10) | DRSC02139 | 54228 | 56922 | 1261 | 5831 | inactive
CG5653 | DRSC10534 | 53201 | 56116 | 6343 | 3702 | inactive
Dph3 (Diphthamide biosynthesis 3) | DRSC14923 | 75093 | 1.03e5 | 2609 | 2616 | inactive
Ance (Angiotensin converting enzyme) | DRSC01865 | 77456 | 31057 | 3169 | 1472 | inactive
CG12290 | DRSC14497 | 98246 | 90221 | 2874 | 2569 | inactive
CG13723 | DRSC10052 | 1.28e5 | – | 3258 | 2923 | inactive
CG5516 | DRSC15826 | 1.29e5 | 1.75e5 | 2722 | 24048 | inactive
Elp6 (Elongator complex protein 6) | DRSC16571 | 1.32e5 | 70268 | 5277 | 1545 | inactive
Hexo2 (Hexosaminidase 2) | DRSC18671 | 87122 | 3.07e5 | 2964 | 10324 | inactive
CG14515 | DRSC14867 | 69418 | 1.06e5 | 1938 | 2642 | inactive
Lon (Lon protease) | DRSC11049 | 75863 | 55171 | 2618 | 1813 | inactive
Rrp1 (Recombination repair protein 1) | DRSC00784 | 1.59e5 | 96865 | 2183 | 8180 | inactive
CG34347 | DRSC14047 | 4.70e5 | 1.84e5 | 23084 | 3900 | inactive
CG34347 | DRSC14305 | 73664 | 50535 | 3568 | 550 | inactive
CG34347 | DRSC15104 | 98777 | 53192 | 3875 | 689 | inactive
CG34347 | DRSC15105 | 1.80e5 | 9268 | 866 | 866 | active
